{"source": "patent US20250127800A1", "about": "“PYRIMIDINE OR PYRIDINE DERIVATIVE AND MEDICINAL USE THEREOF” (SIGNET THERAPEUTICS INC., priority 2021, published 2025)", "format_in_all_cases": "cell-based", "key": {"[1]": {"system": "activated YAP (non-p-YAP)", "experiment": "Western Blot of activated YAP in DGC organoid model", "conditions": "48 hours, dose-dependent", "description": "(§1) Experimental procedures: Organoids were amplified in 6-well plates (7 Matrigel aliquots per well) for 2-3 days prior to evaluation. After passage, 1000 cells were inoculated in 5 μl Matrigel aliquot into each well containing 100 μl 50% L-WRN medium in a 96-well plate. Organoids were cultured for 24 hours, followed by addition of the compounds. Compounds were dissolved in DMSO as stock solution (with a final concentration of […]), which was then diluted with DMSO to 1000× concentration of the testing concentration. Culture medium was added to the stock solution to dilute to the testing concentration. The diluted solution was added to the culture plate. Once compound was added, culture medium was no longer added, and no further compound added. After the organoids were cultured for a specified number of days, the effects of compounds were evaluated by the following three methods, each using DMSO as negative control.\n(§2) 2. After cell culture in accordance with the above procedure and culture with compounds for 48 hours, the cells were lysed, and proteins were extracted and tested by Western Blot. After gel imaging, gray values of protein bands were analyzed to investigate the effects of the compounds on phosphorylated FAK and activated YAP in the organoid model. (For detailed methods, please refer to Haisheng Zhang, Cancer Discovery, 2020)."}, "FAK (p-FAK 397)": {"system": "FAK (p-FAK 397)", "experiment": "Western Blot of phosphorylated FAK in DGC organoid model", "conditions": "48 hours, dose-dependent", "description": "as §1, §2"}, "[2]": {"system": "diffuse-type gastric cancer (DGC) organoid", "experiment": "Cell morphology in diffuse-type gastric cancer (DGC) organoid model", "conditions": "500 nM compound", "description": "as §1\n1. There was a difference in cell morphology between normal cells and the diffuse-type gastric cancer (DGC) organoid model. Normal organoids have hollow spheroid shape, while organoids of diffuse-type gastric cancer have solid grape-like irregular shape. Therefore, the observations of the effect of drugs on cell morphology may be one of the important characteristics for evaluating drug efficacy."}}, "note": "At least one compound was matched to its structure with a doubt left."}
{"smiles": "C=CC(=O)N1CCCC(c2cccc(NCc3ccc(Nc4ncc(C(F)(F)F)c(Nc5ccccc5C(=O)NC)n4)c(OC)c3)c2)C1", "note": "(stereo not drawn) [Compound 12]", "values": [{"measurement": "inhibition of activated YAP (non-p-YAP)", "setting": "[1]", "result": "inhibit the activated YAP (non-p-YAP)"}, {"measurement": "inhibition of phosphorylation of FAK (p-FAK 397)", "setting": "FAK (p-FAK 397)", "result": "can inhibit the phosphorylation of FAK (p-FAK 397)"}, {"measurement": "effect on cell morphology of DGC organoid", "setting": "[2]", "result": "significantly better effects than defactinib and IN-10018"}]}
